{"source": "PubChem BioAssay AID1259308 (NCATS, 2017)", "purpose": "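Candidate targets for better recombinant protein yield in mammalian cells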 (primary screen)", "system": "human HEK293 embryonic kidney cells stably expressing firefly luciferase (HEK-CMV-Luc2-Hygro)", "reagents": "single siRNA against human genes, 0.8 pmol siRNA per well", "timing": "72 h", "detection": "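Luciferase light (ONE-Glo) measured on one replicate plate set and viability (CellTiter-Glo) on the other, scaled to a negative control siRNA, with robust z-scores and luciferase per cell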", "scale": "total luciferase, z-score: higher = more reporter protein produced", "active means": "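An siRNA counts as active if its total luciferase robust z-score exceeds 3; genes with two or more such siRNAs out of three were retested with fresh siRNAs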", "calls": "active = raised luciferase; inactive = no rise", "note": "In all, the deposit lists about 59,000 reagents; this is a part drawn at random. About 1,510 of them (2.6%) count as active. 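Calls use total luciferase alone and ignore viability, so some active siRNAs may act by altering cell number.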 Unmarked entries are inactive. Reagents against one gene are numbered here. Further read-outs or replicates are left out here. No sequences are given here."}
{"target gene":"INPP5J (inositol polyphosphate-5-phosphatase J)","siRNA no.":1,"total luciferase, z-score":1.21}
{"target gene":"INPP5J (inositol polyphosphate-5-phosphatase J)","siRNA no.":2,"total luciferase, z-score":-2.07}
{"target gene":"INPP5J (inositol polyphosphate-5-phosphatase J)","siRNA no.":3,"total luciferase, z-score":-0.0657}
{"target gene":"ACAP2 (ArfGAP with coiled-coil, ankyrin repeat and PH domains 2)","siRNA no.":1,"total luciferase, z-score":0.994}
{"target gene":"ACAP2 (ArfGAP with coiled-coil, ankyrin repeat and PH domains 2)","siRNA no.":2,"total luciferase, z-score":0.376}
{"target gene":"ACAP2 (ArfGAP with coiled-coil, ankyrin repeat and PH domains 2)","siRNA no.":3,"total luciferase, z-score":-0.144}
{"target gene":"NFATC3 (nuclear factor of activated T cells 3)","siRNA no.":1,"total luciferase, z-score":-0.93}
{"target gene":"NFATC3 (nuclear factor of activated T cells 3)","siRNA no.":2,"total luciferase, z-score":1.96}
{"target gene":"NFATC3 (nuclear factor of activated T cells 3)","siRNA no.":3,"total luciferase, z-score":-0.727}
{"target gene":"SIK1 (salt inducible kinase 1)","siRNA no.":1,"total luciferase, z-score":0.144}
{"target gene":"SIK1 (salt inducible kinase 1)","siRNA no.":2,"total luciferase, z-score":-0.496}
{"target gene":"SIK1 (salt inducible kinase 1)","siRNA no.":3,"total luciferase, z-score":-0.647}
{"target gene":"BIRC5 (baculoviral IAP repeat containing 5)","siRNA no.":1,"total luciferase, z-score":-0.911}
{"target gene":"BIRC5 (baculoviral IAP repeat containing 5)","siRNA no.":2,"total luciferase, z-score":-1.88}
{"target gene":"BIRC5 (baculoviral IAP repeat containing 5)","siRNA no.":3,"total luciferase, z-score":-1.68}
{"target gene":"CDC42SE2 (CDC42 small effector 2)","siRNA no.":1,"total luciferase, z-score":0.491}
{"target gene":"CDC42SE2 (CDC42 small effector 2)","siRNA no.":2,"total luciferase, z-score":0.628}
{"target gene":"CDC42SE2 (CDC42 small effector 2)","siRNA no.":3,"total luciferase, z-score":1.46}
{"target gene":"REDIC1 (regulator of DNA class I crossover intermediates 1)","siRNA no.":1,"total luciferase, z-score":0.143}
{"target gene":"REDIC1 (regulator of DNA class I crossover intermediates 1)","siRNA no.":2,"total luciferase, z-score":-0.208}
{"target gene":"REDIC1 (regulator of DNA class I crossover intermediates 1)","siRNA no.":3,"total luciferase, z-score":-0.744}
{"target gene":"MYBPC1 (myosin binding protein C1)","siRNA no.":1,"total luciferase, z-score":0.822}
{"target gene":"MYBPC1 (myosin binding protein C1)","siRNA no.":2,"total luciferase, z-score":0.987}
{"target gene":"MYBPC1 (myosin binding protein C1)","siRNA no.":3,"total luciferase, z-score":-0.217}
{"target gene":"KIAA1671","siRNA no.":1,"total luciferase, z-score":"4.25 (active)"}
{"target gene":"KIAA1671","siRNA no.":2,"total luciferase, z-score":0.33}
{"target gene":"KIAA1671","siRNA no.":3,"total luciferase, z-score":0.00791}
{"target gene":"KIAA1671","siRNA no.":4,"total luciferase, z-score":-2.13}
{"target gene":"KIAA1671","siRNA no.":5,"total luciferase, z-score":0.591}
{"target gene":"KIAA1671","siRNA no.":6,"total luciferase, z-score":-0.247}
{"target gene":"PDGFA (platelet derived growth factor subunit A)","siRNA no.":1,"total luciferase, z-score":0.29}
{"target gene":"PDGFA (platelet derived growth factor subunit A)","siRNA no.":2,"total luciferase, z-score":1.07}
{"target gene":"PDGFA (platelet derived growth factor subunit A)","siRNA no.":3,"total luciferase, z-score":1.47}
{"target gene":"PYGO1 (pygopus family PHD finger 1)","siRNA no.":1,"total luciferase, z-score":0.817}
{"target gene":"PYGO1 (pygopus family PHD finger 1)","siRNA no.":2,"total luciferase, z-score":-0.375}
{"target gene":"PYGO1 (pygopus family PHD finger 1)","siRNA no.":3,"total luciferase, z-score":0.0769}
{"target gene":"SOS1 (SOS Ras/Rac guanine nucleotide exchange factor 1)","siRNA no.":1,"total luciferase, z-score":0.487}
{"target gene":"SOS1 (SOS Ras/Rac guanine nucleotide exchange factor 1)","siRNA no.":2,"total luciferase, z-score":-0.806}
{"target gene":"SOS1 (SOS Ras/Rac guanine nucleotide exchange factor 1)","siRNA no.":3,"total luciferase, z-score":-0.277}
{"target gene":"LCN15 (lipocalin 15)","siRNA no.":1,"total luciferase, z-score":-1.55}
{"target gene":"LCN15 (lipocalin 15)","siRNA no.":2,"total luciferase, z-score":0.242}
{"target gene":"LCN15 (lipocalin 15)","siRNA no.":3,"total luciferase, z-score":-0.436}

Entries above called active:
{"target gene":"KIAA1671","siRNA no.":1,"total luciferase, z-score":"4.25 (active)"}
